Assay results reported in PubChem BioAssay AID504834 (National Center for Advancing Translational Sciences (NCATS), 2011).
The whole screen tested about 320,000 compounds, of which about 22,000 (6.9%) were called active. Inconclusive means that the source gave no clear call. Such entries were picked first, then a sample of the others. Calls come from the whole dose curve; as a rule, active = well fitted inhibition curve with a large enough effect; inconclusive = small, poorly fitted or top-dose-only effect, or another doubt; inactive = no such curve, though single readings can be large or run the other way. Potencies beside an inconclusive call are fits to weak or partial responses and may not hold up.
% is set by controls: 0 for no effect and ±100 for the full control effect; potency is the fitted concentration of half-maximal effect.

Experiment: Primary qHTS for delayed death inhibitors of the malarial parasite plastid, 96 hour incubation
Conditions: P. falciparum luciferase reporter growth; series mostly up to 28.7 µM; activity change, negative = inhibition: at the top concentration
In short: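 Cell-based qHTS: luciferase-tagged P. falciparum in erythrocytes (2% hematocrit, 0.05% parasitemia final) incubated with compounds for 96 hours, 37 C, 5% CO2; luciferase detection reagent then added and luminescence measured.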
With `COC(=O)c1ccc(NC(=O)CCN2C(=O)C3C4CCC(C4)C3C2=O)cc1` (centres undefined) the Potency was inconclusive: 10.4 µM [inhibitor, single point].
For `Cc1nn(C)c(C(=O)Nc2ccn(Cc3ccccc3F)n2)c1[N+](=O)[O-]`, the Potency was inconclusive: 0.657 µM [inhibitor, full curve, poor fit].
With `O=C(CN(c1ccc(F)cc1)S(=O)(=O)c1ccccc1)NCCSC1CCCCC1` the Potency was inconclusive: 14.7 µM [inhibitor, partial curve, poor fit].
For `CCc1cccc(NC(=O)Cc2ccc([N+](=O)[O-])cc2)c1`, the Potency was inconclusive: 11.7 µM [inhibitor, single point].
In the case of `COc1ccc(Cl)cc1NC(=O)CN(C)C(=O)c1cc(C)oc1C`, the Potency is reported as inconclusive: 13.1 µM [inhibitor, single point].
With `CC1=NN2C(=N)/C(=C\c3cc(C)n(-c4cccc(C)c4)c3C)C(=O)N=C2S1` the Potency was inconclusive: 6.57 µM [inhibitor, partial curve].
For `O=C(Nc1ccc(-c2cnco2)cc1)c1ccc(Cl)cc1`, the “activity change, negative = inhibition” value was inactive: 17%.
With `CCc1ccccc1NC(=O)Nc1cccs1` the Potency was inconclusive: 9.28 µM [inhibitor, partial curve, poor fit].
With `COC(=O)c1scc(C)c1NC(=O)c1ccc(Cl)cc1` the “activity change, negative = inhibition” value was inactive: 42.2%.
With `COc1ccc(NC(=O)Cn2cnc3sc(C)c(S(=O)(=O)N4CCOCC4)c3c2=O)cc1Cl` the “activity change, negative = inhibition” value was inactive: 27%.
With `Cc1ccc(-c2ccc(=O)n(CC(=O)N3CCC4(CC3)OCCO4)n2)cc1` the Potency was inconclusive: 10.4 µM [inhibitor, partial curve, poor fit].
With `CC(NC(=O)Nc1cccc([N+](=O)[O-])c1)(C(F)(F)F)C(F)(F)F` the Potency was inconclusive: 18.5 µM [inhibitor, partial curve, poor fit].
With `Cc1ccc(N(C(=O)c2sc(C)nc2C)C(C(=O)NCc2ccco2)c2ccccc2)cc1` (centres undefined) the Potency was inconclusive: 5.86 µM [inhibitor, partial curve].
For `Cc1cccc(C(c2c(C)nn(-c3ccccc3)c2N)c2c(C)nn(-c3ccccc3)c2N)c1`, the Potency was inconclusive: 10.4 µM [inhibitor, partial curve, poor fit].
For `OCCCNCc1ccc(N(c2ccccc2)c2ccccc2)cc1`, the Potency was active: 2.33 µM.
With `O=C(CSc1nc2ccc(N3CCOCC3)cc2c(=O)n1CCc1ccccc1)NCC1CCCO1` (centres undefined) the Potency was inconclusive: 18.5 µM [inhibitor, single point].
For `CC(C)c1ccc(COC(=O)CN2C(=O)NC3(CCCCC3C)C2=O)cc1` (centres undefined), the “activity change, negative = inhibition” value was inactive: 28%.
With `OC1(c2ccc(OC(F)F)cc2)CSC(=Nc2cccnc2)N1C1CC1` (centres undefined) the Potency was inconclusive: 0.586 µM [inhibitor, partial curve, poor fit].
In the case of `COc1cc(C[C@@H]2C(=O)OC[C@H]2Cc2ccc(OC)c(OC)c2)ccc1O`, the “activity change, negative = inhibition” value is reported as inactive: 31.2%.
For `Cc1cc(=O)oc2cc(OCC(=O)N/N=C/c3ccccc3O)ccc12`, the Potency was active: 9.28 µM.
For `C/C(=N\NC(=O)Cc1c(F)cccc1Cl)c1cccnc1`, the Potency was inconclusive: 5.22 µM [inhibitor, partial curve].
With `COc1ccc(CCNC(=O)CNC(=O)c2ccc3c(c2)OCO3)cc1OC` the Potency was inconclusive: 18.5 µM [inhibitor, partial curve, poor fit].
In the case of `c1ccc(Nc2nc(N3CCNCC3)nc(N3CCOCC3)n2)cc1`, the Potency is reported as inconclusive: 0.233 µM [inhibitor, full curve, poor fit].
In the case of `CCC(COC)NCc1cn(-c2ccc(OC)cc2)nc1-c1cccc(F)c1` (centres undefined), the Potency is reported as inconclusive: 18.5 µM [inhibitor, single point].
In the case of `CSCCNC(=O)c1ccc2nc(Cc3ccccc3F)oc2c1`, the Potency is reported as inconclusive: 4.65 µM [inhibitor, partial curve, poor fit].
With `O=C1c2c([N+](=O)[O-])cc([N+](=O)[O-])cc2S(=O)N1Cc1ccccc1` (centres undefined) the Potency was inconclusive: 0.0738 µM [inhibitor, partial curve, poor fit].
In the case of `O=C(NCCNC(=O)c1cc(OCC(F)(F)F)ccc1OCC(F)(F)F)Nc1ccccc1`, the Potency is reported as inconclusive: 13.1 µM [inhibitor, single point].
In the case of `CCOc1ccc2oc(C(=O)N(Cc3nnc(-c4ccccc4Cl)o3)C3CC3)c(C)c2c1`, the Potency is reported as active: 8.28 µM.
With `O=C(NC1CCS(=O)(=O)C1)c1cccc(S(=O)(=O)N2CCCC2)c1` (centres undefined) the “activity change, negative = inhibition” value was inactive: -1.52%.
For `O=C1N(Cc2cccnc2)C[C@@H]2C[C@@H](c3ccc4nsnc4c3)N3CCC[C@@]123`, the Potency was inconclusive: 5.86 µM [inhibitor, partial curve, poor fit].
In the case of `Cn1cccc1CC(=O)N/N=C\c1cccs1`, the Potency is reported as inconclusive: 0.738 µM [inhibitor, full curve].
With `COc1ccc(N2CCN(c3ccc(NC(=O)/C=C\C(=O)O)cc3)CC2)cc1` the Potency was inconclusive: 0.465 µM [inhibitor, full curve, poor fit].
In the case of `CC1CN(C(=O)c2ccccc2)C(=Nc2cccc(S(=O)(=O)N(C)C)c2)S1` (centres undefined), the Potency is reported as inconclusive: 0.0586 µM [inhibitor, full curve, poor fit].
With `COc1ccccc1CNC(=O)c1[nH]c(C)c(C(C)=O)c1C` the Potency was inconclusive: 16.5 µM [inhibitor, single point].
In the case of `O=C(O)c1cc[c]([Hg][Cl])cc1`, the Potency is reported as active: 5.22 µM.
With `COc1ccc(OC)c(NC(=O)c2ccno2)c1` the “activity change, negative = inhibition” value was inactive: 19.4%.
With `CC(C)c1ccccc1NC(=O)COC(=O)c1cccnc1` the Potency was active: 13.1 µM.
For `CCN(CC)CC#CCC(O)(c1ccccc1)C1CCCC1` (centres undefined), the “activity change, negative = inhibition” value was inactive: -26.4%.
For `Cn1c(SCC(=O)NC2CCCCC2)nnc1-c1ccccc1O`, the Potency was inconclusive: 0.37 µM [inhibitor, partial curve].
For `O=C(NCc1ccccn1)c1ccc(NS(=O)(=O)c2ccccc2)cc1`, the “activity change, negative = inhibition” value was inactive: 101%.
In the case of `CCN(CC)S(=O)(=O)c1cccc(C(=O)N/N=C/c2cccc(O)c2O)c1`, the Potency is reported as inconclusive: 18.5 µM [inhibitor, single point].
For `CCOC(=O)C1CCN(C(=O)Cc2ccc(C)cc2)CC1`, the Potency was inconclusive: 23.3 µM [inhibitor, partial curve, poor fit].
With `COC(=O)[C@H]1C[C@@H]1[C@H](NC(=O)[C@H]1C[C@@H]1[C@H](NC(=O)OCc1ccccc1)c1ccccc1)c1ccccc1` the Potency was active: 14.7 µM.
For `CCc1ccc2nc(N3CCN(C)CC3)c(C#N)cc2c1`, the Potency was inconclusive: 11.7 µM [inhibitor, single point].
With `Cc1nn(CC(=O)N2CCC3(CC2)OCCO3)c(=O)c2cc3ccccc3n12` the “activity change, negative = inhibition” value was inactive: -16%.
For `CCOc1nc(OCC)c2cnn(C)c2n1`, the “activity change, negative = inhibition” value was inactive: 83.9%.
With `Cc1ccc(Sc2ncccc2C(=O)NCC(c2ccc(F)cc2)N2CCOCC2)c(C)c1` (centres undefined) the Potency was inconclusive: 11.7 µM [inhibitor, single point].
In the case of `O=C(CCl)Nc1ccccc1C(=O)NCc1ccccc1`, the Potency is reported as inconclusive: 11.7 µM [inhibitor, single point].
With `COc1ccc(CN(C)C(=O)c2cnc(C)cn2)c(OC)c1OC` the “activity change, negative = inhibition” value was inactive: -8.36%.
In the case of `O=C(CN1C(=O)NC2(CCCCC2)C1=O)Nc1ccc(F)cc1`, the “activity change, negative = inhibition” value is reported as inactive: 61%.
With `CC1(C)C(=O)C2(CCCCC2)C(=O)OC1C(=O)c1ccccc1` (centres undefined) the Potency was inconclusive: 11.7 µM [inhibitor, partial curve].
In the case of `CCC(C)NC(=O)C1CCN(C(=O)COc2ccc3c4c(c(=O)oc3c2C)CCCC4)CC1` (centres undefined), the Potency is reported as inconclusive: 11.7 µM [inhibitor, single point].
In the case of `COc1ccc(C(=O)Nc2cc(Cl)ccc2OC(=O)c2ccc(OC)cc2)cc1`, the “activity change, negative = inhibition” value is reported as inactive: -84.8%.
In the case of `COc1ccccc1N1CCN(C(=O)C(=O)c2c(C)[nH]c3ccccc23)CC1`, the Potency is reported as inconclusive: 18.5 µM [inhibitor, single point].
With `CC(=O)Nc1ccc(NC(=O)CSc2nnnn2-c2ccc3c(c2)OCCO3)cc1` the Potency was inconclusive: 13.1 µM [inhibitor, single point].
With `O=C(CSc1nc2ccccc2[nH]1)Nc1cc(C(F)(F)F)ccc1N1CCOCC1` the Potency was active: 5.22 µM.
For `Cc1ccc(C)c(Oc2ncnc(N)c2[N+](=O)[O-])c1`, the “activity change, negative = inhibition” value was inactive: 27.5%.
With `CS(=O)(=O)c1sc2nc(-c3cccs3)cc(-c3ccccc3)c2c1N` the “activity change, negative = inhibition” value was inactive: 73.4%.
For `CN1CCN(S(=O)(=O)c2ccc(N(C)Cc3ccc(C(F)(F)F)cc3)c([N+](=O)[O-])c2)CC1`, the Potency was inconclusive: 14.7 µM [inhibitor, partial curve, poor fit].
With `CN1C(=O)/C(=C2\SC(N3CCCCCC3)=NC2=O)c2ccccc21` the Potency was active: 4.15 µM.
For `COc1cc(NS(=O)(=O)c2ccc(NC(=S)NC(=O)c3ccc(F)cc3)cc2)nc(OC)n1`, the “activity change, negative = inhibition” value was inactive: -8.75%.
For `Cc1nc(NC(C)C)c2cnn(CCc3ccccc3)c2n1`, the “activity change, negative = inhibition” value was inactive: -5.76%.
In the case of `CCc1cccc(CC)c1NC(=O)CSc1nnc(C(C)C)n1CC`, the Potency is reported as inconclusive: 0.0037 µM [inhibitor, full curve, poor fit].
With `Cc1ccc(S(=O)(=O)N2CCN(C(=O)c3ccco3)CC2)cc1C` the Potency was inconclusive: 18.5 µM [inhibitor, single point].
In the case of `CCOC(=O)Cc1c(C)nc2cc(C)nn2c1C`, the Potency is reported as active: 13.1 µM.
In the case of `COc1ccccc1N(C)S(=O)(=O)c1ccc(C(=O)NCc2ccc3c(c2)OCO3)cc1`, the Potency is reported as inconclusive: 10.4 µM [inhibitor, single point].
For `COc1cc(C2CC(=O)C3=C(C2)Nc2ncnn2C3c2cccs2)cc(OC)c1OC` (centres undefined), the Potency was inconclusive: 0.0522 µM [inhibitor, full curve].
For `OCC1N=C(c2ccccn2)OC1c1ccccc1` (centres undefined), the Potency was inconclusive: 18.5 µM [inhibitor, single point].
In the case of `CCCC(C)n1[nH]c(=O)cc1N` (centres undefined), the Potency is reported as inconclusive: 0.657 µM [inhibitor, partial curve, poor fit].
